This is an account of results in PMC7948473.

Protein sequences, listed by entry. Tags and fused reporters are not part of them. Residues count along the entry.
UniProt P37173, residues 23-567: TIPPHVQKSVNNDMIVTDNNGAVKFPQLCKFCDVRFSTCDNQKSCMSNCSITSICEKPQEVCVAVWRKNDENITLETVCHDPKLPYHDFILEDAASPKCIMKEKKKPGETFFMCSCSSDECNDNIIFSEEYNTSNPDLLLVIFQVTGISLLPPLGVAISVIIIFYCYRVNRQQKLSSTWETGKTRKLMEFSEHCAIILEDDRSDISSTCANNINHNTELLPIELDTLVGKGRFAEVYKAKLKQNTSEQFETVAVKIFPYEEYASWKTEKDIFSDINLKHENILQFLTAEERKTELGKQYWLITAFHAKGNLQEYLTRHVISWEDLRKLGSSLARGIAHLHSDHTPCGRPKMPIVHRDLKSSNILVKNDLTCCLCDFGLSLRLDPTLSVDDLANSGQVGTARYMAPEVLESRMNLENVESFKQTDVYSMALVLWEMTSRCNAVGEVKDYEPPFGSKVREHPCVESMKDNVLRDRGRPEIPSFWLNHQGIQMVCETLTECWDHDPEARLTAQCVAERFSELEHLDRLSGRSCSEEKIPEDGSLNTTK
UniProt Q8N4A0: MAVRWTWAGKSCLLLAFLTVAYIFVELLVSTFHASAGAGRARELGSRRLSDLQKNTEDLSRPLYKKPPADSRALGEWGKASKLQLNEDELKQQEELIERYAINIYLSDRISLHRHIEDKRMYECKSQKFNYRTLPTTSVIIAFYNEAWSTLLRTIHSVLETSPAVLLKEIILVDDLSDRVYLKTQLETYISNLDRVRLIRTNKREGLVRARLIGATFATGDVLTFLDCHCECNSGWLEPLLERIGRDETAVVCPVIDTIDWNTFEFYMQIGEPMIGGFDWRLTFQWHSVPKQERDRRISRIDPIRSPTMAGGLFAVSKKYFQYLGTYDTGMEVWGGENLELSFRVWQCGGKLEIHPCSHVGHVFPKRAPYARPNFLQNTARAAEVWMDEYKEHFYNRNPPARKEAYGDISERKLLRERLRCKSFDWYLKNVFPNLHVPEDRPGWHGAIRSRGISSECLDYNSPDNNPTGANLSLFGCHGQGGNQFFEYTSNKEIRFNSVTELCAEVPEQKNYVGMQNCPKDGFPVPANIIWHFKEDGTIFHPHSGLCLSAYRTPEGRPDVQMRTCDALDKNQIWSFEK

These are yes or no findings as the source states them, for the method shown. Binding seen in cells or lysates may run through a third protein. Some results given as binding are weak or reduced against the parent protein; the word gives no strength. For part of these data: Tags and fused reporters may be left off the sequences shown.

In assay [1] the target is T1, HA-TβR Ⅰ (HA-tagged full-length human TGF-β type Ⅰ receptor), in HEK-293T (human) (UniProt P36897).
T1 sequence: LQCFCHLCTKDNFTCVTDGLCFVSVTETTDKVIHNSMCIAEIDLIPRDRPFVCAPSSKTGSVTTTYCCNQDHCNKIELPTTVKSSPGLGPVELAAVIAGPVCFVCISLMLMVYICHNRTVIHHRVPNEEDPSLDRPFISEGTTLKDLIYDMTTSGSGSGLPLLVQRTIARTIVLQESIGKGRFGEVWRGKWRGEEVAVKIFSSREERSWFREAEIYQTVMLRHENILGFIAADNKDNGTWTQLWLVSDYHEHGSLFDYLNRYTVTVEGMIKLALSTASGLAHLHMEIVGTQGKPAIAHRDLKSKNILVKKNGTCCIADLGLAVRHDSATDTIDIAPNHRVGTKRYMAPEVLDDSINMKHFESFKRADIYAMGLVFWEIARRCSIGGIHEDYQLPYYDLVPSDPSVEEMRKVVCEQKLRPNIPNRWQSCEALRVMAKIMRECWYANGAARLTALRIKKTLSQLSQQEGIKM
Nature of the assay: co-IP; HEK-293T cells co-transfected with Flag-T4 and HA-TβR Ⅰ or HA-TβR Ⅱ; whole cell lysates precipitated with anti-HA magnetic beads, blotted with anti-Flag and anti-ppGalNAc-T4.

Assay [2] addresses HA-TβR Ⅱ (HA-tagged full-length human TGF-β type Ⅱ receptor), in HEK-293T (human) (UniProt P37173). The description is as above.
In assay [3] the target is Flag-T4 (Flag-tagged full-length human ppGalNAc-T4) (human) (UniProt Q8N4A0). Nature of the assay: co-IP; HEK-293T cells co-transfected with Flag-T4 and HA-TβR Ⅰ or HA-TβR Ⅱ; whole cell lysates precipitated with anti-Flag magnetic beads, blotted with anti-HA.

“Flag-T4 (Flag-tagged full-length human ppGalNAc-T4) (from UniProt Q8N4A0 1-578) (enzyme)”: the binding result in assay [1] and in assay [2] was “binds” throughout.
On to “HA-TβR Ⅱ (HA-tagged full-length human TGF-β type Ⅱ receptor), in HEK-293T (from UniProt P37173 23-567)”, for which the binding result in assay [3] is “binds”.
